# Some of the results follow.
# Target: T1, OsSMF1 (Oryza sativa, UniProt Q6ZLB0 1-436)
# T1 sequence: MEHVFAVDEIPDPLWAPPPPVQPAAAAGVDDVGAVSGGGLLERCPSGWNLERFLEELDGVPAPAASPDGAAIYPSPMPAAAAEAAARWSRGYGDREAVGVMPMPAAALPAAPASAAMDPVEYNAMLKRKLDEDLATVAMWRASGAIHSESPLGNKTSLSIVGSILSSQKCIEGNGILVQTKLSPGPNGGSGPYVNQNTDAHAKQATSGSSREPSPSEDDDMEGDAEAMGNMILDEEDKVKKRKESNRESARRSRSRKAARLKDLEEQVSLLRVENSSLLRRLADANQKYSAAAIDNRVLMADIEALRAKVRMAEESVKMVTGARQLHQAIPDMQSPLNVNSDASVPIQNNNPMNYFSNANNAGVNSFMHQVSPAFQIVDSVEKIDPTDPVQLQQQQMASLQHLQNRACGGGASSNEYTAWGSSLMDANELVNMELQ
# Assay: protein-binding microarray (RPBM); PBS, 2% BSA, 51.3 ng/ul salmon testes DNA, 50 uM zinc acetate, 200 nM TF, 25 C, 1 h; high values mean tight binding
# Conditions: protein: recombinant; tags: N-terminal polyhistidine and DsRed monomer fusion (pET32a); chain copies: 2; label: CyDye5-dUTP incorporated in the synthesized complementary strand; 3' TTTTT single-stranded linker to array surface; dsDNA, one strand shown
# Outline: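 The binding signal for each feature is its fluorescence intensity in arbitrary units. An Axon 4000B scanner was used to read a custom Agilent array that had been made double-stranded with Cy5-dUTP primer extension, blocked with 2% BSA, incubated at 25 °C for 1 h with 200 nM protein in PBS, 2% BSA, salmon testes DNA and 50 µM zinc acetate, and washed. The protein was an N-terminal polyhistidine–DsRed transcription factor fusion from E. coli BL21-CodonPlus, purified on Ni–NTA.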
row,Sequence,binding signal
1,AGGGTTATAATTAGATGGGTAGTGGAGGTAGGTAAGAAAACGGAGTCACCTAGTGCAG,4130 fluorescence intensity (a.u.)
2,GTGGTTCATGGACGATTTTGTAACTTGATGACAAGGAGGGCGGAGTCACCTAGTGCAG,4440 fluorescence intensity (a.u.)
3,TTATTCCCTCTCTACCCCAGCTACCCTATACCATCTCAAGCGGAGTCACCTAGTGCAG,3280 fluorescence intensity (a.u.)
4,CGTTGTGCTAGCATTTGCAGGTCCAGCACATCATCGTTGGCGGAGTCACCTAGTGCAG,6200 fluorescence intensity (a.u.)
5,CCCAAGGTATCATTCGTCCATTTATTGATTTGTTTCTCTGCGGAGTCACCTAGTGCAG,4390 fluorescence intensity (a.u.)
6,ACTCGGAGTCGTCTCCTCCCTCCGTCAGCGCTTCCATCTTCGGAGTCACCTAGTGCAG,3970 fluorescence intensity (a.u.)
7,AACATATTAGAATATCGGTCTTAAATTAAATCCCATATAACGGAGTCACCTAGTGCAG,29100 fluorescence intensity (a.u.)
8,CCTCGCCACCGCACGCGTCGCCCCGGCGCCGCTTCCCCTGCGGAGTCACCTAGTGCAG,3930 fluorescence intensity (a.u.)
9,GCAAAAGCATTGCTTCTCCCAACCGTTGCATGCATGCTCTCGGAGTCACCTAGTGCAG,3300 fluorescence intensity (a.u.)
10,CAGTTCACCATTAGTCACCATCTAATTGTATCCTAGCAGGCGGAGTCACCTAGTGCAG,3300 fluorescence intensity (a.u.)
11,CGACGGTGATGCACGAGCGCCCAGGCTCATGCAGCCAGTACGGAGTCACCTAGTGCAG,3280 fluorescence intensity (a.u.)
12,GAGAGAGCCCTGCATGATGCAGTCAAATTAATCACGCAGCCGGAGTCACCTAGTGCAG,3320 fluorescence intensity (a.u.)
13,AACATTCCCGTGCATGCGTGATCTTCGGAGCATTTCTGTTCGGAGTCACCTAGTGCAG,36700 fluorescence intensity (a.u.)
14,AAAACAAATTAAACAGCAACTACATAATGTATTGTCATAGCGGAGTCACCTAGTGCAG,3540 fluorescence intensity (a.u.)
15,TCTACCGAACAAGCCTATTATGTTTAAAGATTTCTAGCTCCGGAGTCACCTAGTGCAG,28700 fluorescence intensity (a.u.)
16,ACATATATATACTACGATGGTGCGTGTGACGCACGACACGCGGAGTCACCTAGTGCAG,3690 fluorescence intensity (a.u.)
17,GGTAAACATTAAGATCGGCCTTGTCACGGGCCACCGGAACCGGAGTCACCTAGTGCAG,3360 fluorescence intensity (a.u.)
18,GAGCAGCCAGCTCGCCAAGCCTAGCCATTCTTGATCTCTTCGGAGTCACCTAGTGCAG,3280 fluorescence intensity (a.u.)
19,TCTCTTACTACCTTCCACGCTTCCATCCCACGTCTTCTCCCGGAGTCACCTAGTGCAG,5140 fluorescence intensity (a.u.)
20,CAACATTTCTATGCCAGCTCACCCGTGACATGGCCCTCTCCGGAGTCACCTAGTGCAG,22300 fluorescence intensity (a.u.)
21,TAATTAAAAGATTTGTCTCGTAATTTACACGCAATCTATGCGGAGTCACCTAGTGCAG,3460 fluorescence intensity (a.u.)

row,Sequence,binding signal
1,GAAGAGGGGAAAGAGAGAGGGTGACGTGGACACCTGACATCGGAGTCACCTAGTGCAG,21700 fluorescence intensity (a.u.)
2,CCCACCTTTCAAATTCCACGTCCGCCAATAATATTATTACCGGAGTCACCTAGTGCAG,6710 fluorescence intensity (a.u.)
3,CAGAGTGCGCCGCAACCGCCGCGCGCCGCCAGCTCCGCTACGGAGTCACCTAGTGCAG,3310 fluorescence intensity (a.u.)
4,CGGCGGCCCTGACGACGAGGCCGCGTGACGGCCGCGGCGCCGGAGTCACCTAGTGCAG,5860 fluorescence intensity (a.u.)
5,GATGAGCTGCGGCAACCACGTCGTCTTTGAGAGGAAGTGCCGGAGTCACCTAGTGCAG,3730 fluorescence intensity (a.u.)
6,TACTTAATTGGGAAACGTGACACTTCATGGTCCGTGAAGGCGGAGTCACCTAGTGCAG,3220 fluorescence intensity (a.u.)
7,GCGAGTCGAGTCGCTTCCACCCACCTCACCTCCCTTCCCCCGGAGTCACCTAGTGCAG,3560 fluorescence intensity (a.u.)
8,CAGTCCGCGCGCGCACCCGTTTCCTCCAACGACTGATCTGCGGAGTCACCTAGTGCAG,17700 fluorescence intensity (a.u.)
9,CAATTATGACACTGCAAATATTAACCTTTACTATAATGACCGGAGTCACCTAGTGCAG,5000 fluorescence intensity (a.u.)
10,TGTGTGTTTTGTGCTGTACACCTGTACTACTACTGCTGTACGGAGTCACCTAGTGCAG,3170 fluorescence intensity (a.u.)
11,ATGAGGGGTAGGAGGATGACATGTGGGGCCCACGTGGGTCCGGAGTCACCTAGTGCAG,6460 fluorescence intensity (a.u.)
12,TTTTGTCTTTGGTGCCACGTCCCCATCATGTCATGTAAAACGGAGTCACCTAGTGCAG,23700 fluorescence intensity (a.u.)
13,AAATTGTACTATTACTAAAGAATACATAGATATCTAAACACGGAGTCACCTAGTGCAG,3160 fluorescence intensity (a.u.)
14,TTTGTAAGCCTTGCATATCTATTGAGTAATGCCTGAGTCGCGGAGTCACCTAGTGCAG,3780 fluorescence intensity (a.u.)
15,ATTCCGATGGCTATATACGGTATTCCGCGTGCACACTAACCGGAGTCACCTAGTGCAG,3690 fluorescence intensity (a.u.)
16,TGTTAGGAGTAGGGATGTAAGTGGAGCGGGTAAGCGGGTTCGGAGTCACCTAGTGCAG,3370 fluorescence intensity (a.u.)
17,CGAGCCCTCGCGCGCGTCGCATCGCATCACCGCCGCGCCGCGGAGTCACCTAGTGCAG,3780 fluorescence intensity (a.u.)
18,TATCTTAATCGACGTGGTGTCCACGTTGCAAATTACTACACGGAGTCACCTAGTGCAG,9370 fluorescence intensity (a.u.)
19,AGTAGTACTAGTACGTAATGCCATTGCACGGGACCATCTTCGGAGTCACCTAGTGCAG,3150 fluorescence intensity (a.u.)
20,AAAAGAAGAGAAAGAGGCGTCATCAACTTTAGTAGAATCTCGGAGTCACCTAGTGCAG,4790 fluorescence intensity (a.u.)
21,TGTGCTTGCACAGGAAGATGCAACTAACAGTGAAGTGATGCGGAGTCACCTAGTGCAG,13400 fluorescence intensity (a.u.)

# 2 neighbouring entries already listed, for reference:
row,Sequence,binding signal
17,CGAGCCCTCGCGCGCGTCGCATCGCATCACCGCCGCGCCGCGGAGTCACCTAGTGCAG,3780 fluorescence intensity (a.u.)
18,TATCTTAATCGACGTGGTGTCCACGTTGCAAATTACTACACGGAGTCACCTAGTGCAG,9370 fluorescence intensity (a.u.)

# — PMC7819943, “Rice protein-binding microarrays: a tool to detect cis-acting elements near promoter regions in rice”
